# Laboratory results as given in the supplement of paper PMC4604168 (melanoma cell lines).
# Some of the results follow. Many values rest on one well or one pass, so single values are uncertain.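 Cells were imaged in 1,536-well plates, and nuclei stained with an antibody against cleaved PARP were counted against all DNA-stained nuclei to give the apoptosis fraction. Screening doses were chosen to leave most cells alive, and resting and induced cleaved-PARP levels differ strongly between cell lines.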
# Tests used:
# Test in all cases: cleaved PARP positive nuclei fraction relative to DMSO control; melanoma cells; higher = more apoptosis
# Conditions in all cases: library dose: low library concentration; 72 h
# COLO792 = system: COLO792
# COLO800 = system: COLO800
# COLO829 = system: COLO829
# G361 = system: G361
# IPC-298 = system: IPC-298
# IST-MEL1 = system: IST-MEL1
# LB2518-MEL = system: LB2518-MEL
# LOXIMVI = system: LOXIMVI
# MEL-HO = system: MEL-HO
smiles,measurement,setting,value
"C[C@]12O[C@H](C[C@]1(O)CO)n1c3ccccc3c3c4c(c5c6ccccc6n2c5c31)CNC4=O [Lestaurtinib] + O=C(CCCCCCC(=O)Nc1ccccc1)NO [vorinostat] (first compound 0.004 µM, partner dose 0.08 µM)",cleaved PARP positive nuclei fraction,COLO792,23.3%
same,cleaved PARP positive nuclei fraction,COLO800,48.8%
same,cleaved PARP positive nuclei fraction,COLO829,84.7%
same,cleaved PARP positive nuclei fraction,G361,86.2%
same,cleaved PARP positive nuclei fraction,IPC-298,84.2%
same,cleaved PARP positive nuclei fraction,IST-MEL1,131%
same,cleaved PARP positive nuclei fraction,LB2518-MEL,86%
same,cleaved PARP positive nuclei fraction,LOXIMVI,30.4%
same,cleaved PARP positive nuclei fraction,MEL-HO,74.3%
"Cn1cc(C2=C(c3cn(C4CCN(Cc5ccccn5)CC4)c4ccccc34)C(=O)NC2=O)c2ccccc21 [Enzastaurin] + COc1ccc(COc2ccc(Cc3cnc(N)nc3N)cc2OC)cc1 [GW2580] (first compound 0.8 µM, partner dose 1 µM)",cleaved PARP positive nuclei fraction,COLO792,54%
same,cleaved PARP positive nuclei fraction,COLO800,57.2%
same,cleaved PARP positive nuclei fraction,COLO829,95.7%
same,cleaved PARP positive nuclei fraction,G361,84.1%
same,cleaved PARP positive nuclei fraction,IPC-298,42.8%
same,cleaved PARP positive nuclei fraction,IST-MEL1,47.2%
same,cleaved PARP positive nuclei fraction,LB2518-MEL,140%
same,cleaved PARP positive nuclei fraction,LOXIMVI,105%
"Cn1c(=O)n(-c2ccc(C(C)(C)C#N)cc2)c2c3cc(-c4cnc5ccccc5c4)ccc3ncc21 + C/C(O)=C(\C#N)C(=O)Nc1cc(Br)ccc1Br [LFM-A13] (first compound 0.004 µM, partner dose 2 µM)",cleaved PARP positive nuclei fraction,COLO792,80.6%
same,cleaved PARP positive nuclei fraction,COLO800,92.3%
same,cleaved PARP positive nuclei fraction,COLO829,122%
same,cleaved PARP positive nuclei fraction,G361,136%
same,cleaved PARP positive nuclei fraction,IPC-298,96.2%
same,cleaved PARP positive nuclei fraction,IST-MEL1,92.5%
same,cleaved PARP positive nuclei fraction,LB2518-MEL,69.3%
same,cleaved PARP positive nuclei fraction,LOXIMVI,255%
"C[C@]12O[C@H](C[C@]1(O)CO)n1c3ccccc3c3c4c(c5c6ccccc6n2c5c31)CNC4=O [Lestaurtinib] + O=C1NC(=O)/C(=C/c2ccc(-c3ccc(F)cc3O)o2)S1 [AS252424] (first compound 0.004 µM, partner dose 1 µM)",cleaved PARP positive nuclei fraction,COLO792,91.5%
same,cleaved PARP positive nuclei fraction,COLO800,153%
same,cleaved PARP positive nuclei fraction,COLO829,26.2%
same,cleaved PARP positive nuclei fraction,G361,150%
same,cleaved PARP positive nuclei fraction,IPC-298,62.6%
same,cleaved PARP positive nuclei fraction,IST-MEL1,178%
same,cleaved PARP positive nuclei fraction,LB2518-MEL,73%
same,cleaved PARP positive nuclei fraction,LOXIMVI,153%
"Clc1ccc(Nc2nnc(Cc3ccncc3)c3ccccc23)cc1 [vatalanib] + O=C(Oc1ccc([N+](=O)[O-])cc1)N1CCC(C(O)(c2ccc3c(c2)OCO3)c2ccc3c(c2)OCO3)CC1 [JZL184] (first compound 2 µM, partner dose 1 µM)",cleaved PARP positive nuclei fraction,COLO792,110%
same,cleaved PARP positive nuclei fraction,COLO800,124%
same,cleaved PARP positive nuclei fraction,COLO829,74.8%
same,cleaved PARP positive nuclei fraction,G361,117%
same,cleaved PARP positive nuclei fraction,IPC-298,94.7%
same,cleaved PARP positive nuclei fraction,IST-MEL1,47.6%
same,cleaved PARP positive nuclei fraction,LB2518-MEL,78.5%
same,cleaved PARP positive nuclei fraction,LOXIMVI,72.7%
"Cc1cn(-c2cc(NC(=O)c3ccc(C)c(Nc4nccc(-c5cccnc5)n4)c3)cc(C(F)(F)F)c2)cn1 [nilotinib] + O=C(Oc1ccc([N+](=O)[O-])cc1)N1CCC(C(O)(c2ccc3c(c2)OCO3)c2ccc3c(c2)OCO3)CC1 [JZL184] (first compound 0.2 µM, partner dose 1 µM)",cleaved PARP positive nuclei fraction,COLO792,20.6%
same,cleaved PARP positive nuclei fraction,COLO800,34.2%
same,cleaved PARP positive nuclei fraction,COLO829,118%
same,cleaved PARP positive nuclei fraction,G361,126%
same,cleaved PARP positive nuclei fraction,IPC-298,117%
same,cleaved PARP positive nuclei fraction,IST-MEL1,84%
same,cleaved PARP positive nuclei fraction,LB2518-MEL,137%
same,cleaved PARP positive nuclei fraction,LOXIMVI,68.6%
"Cn1cc(C2=C(c3cn(C4CCN(Cc5ccccn5)CC4)c4ccccc34)C(=O)NC2=O)c2ccccc21 [Enzastaurin] + CCN(CC)CCCCNc1ncc2cc(-c3cc(OC)cc(OC)c3)c(NC(=O)NC(C)(C)C)nc2n1 [PD173074] (first compound 0.8 µM, partner dose 0.1 µM)",cleaved PARP positive nuclei fraction,COLO792,83.9%
same,cleaved PARP positive nuclei fraction,COLO800,92.1%
same,cleaved PARP positive nuclei fraction,COLO829,92.7%
same,cleaved PARP positive nuclei fraction,G361,111%
same,cleaved PARP positive nuclei fraction,IPC-298,83.1%
same,cleaved PARP positive nuclei fraction,IST-MEL1,83%
same,cleaved PARP positive nuclei fraction,LB2518-MEL,85.7%
same,cleaved PARP positive nuclei fraction,LOXIMVI,69.5%
"C=C(c1ccc(C(=O)O)cc1)c1cc2c(cc1C)C(C)(C)CCC2(C)C [Bexarotene] + C/C(O)=C(\C#N)C(=O)Nc1cc(Br)ccc1Br [LFM-A13] (first compound 2 µM, partner dose 2 µM)",cleaved PARP positive nuclei fraction,COLO792,203%
same,cleaved PARP positive nuclei fraction,COLO800,46.6%
same,cleaved PARP positive nuclei fraction,COLO829,64%
same,cleaved PARP positive nuclei fraction,G361,91.1%
same,cleaved PARP positive nuclei fraction,IPC-298,88.4%
same,cleaved PARP positive nuclei fraction,IST-MEL1,105%
same,cleaved PARP positive nuclei fraction,LB2518-MEL,57.2%
same,cleaved PARP positive nuclei fraction,LOXIMVI,220%
"CN1CCN(c2ccc3nc(-c4c(N)c5c(F)cccc5[nH]c4=O)[nH]c3c2)CC1 [Dovitinib] + C/C(O)=C(\C#N)C(=O)Nc1cc(Br)ccc1Br [LFM-A13] (first compound 0.1 µM, partner dose 2 µM)",cleaved PARP positive nuclei fraction,COLO792,138%
same,cleaved PARP positive nuclei fraction,COLO800,102%
same,cleaved PARP positive nuclei fraction,COLO829,153%
same,cleaved PARP positive nuclei fraction,G361,93.5%
same,cleaved PARP positive nuclei fraction,IPC-298,184%
same,cleaved PARP positive nuclei fraction,IST-MEL1,188%
same,cleaved PARP positive nuclei fraction,LB2518-MEL,147%
same,cleaved PARP positive nuclei fraction,LOXIMVI,61.2%
"Cn1sc(=O)n(Cc2ccccc2)c1=O + Cc1cc(SCc2sc(-c3ccc(C(F)(F)F)c(F)c3)nc2C)ccc1OCC(=O)O [GW0742] (first compound 0.4 µM, partner dose 2 µM)",cleaved PARP positive nuclei fraction,COLO792,155%
same,cleaved PARP positive nuclei fraction,COLO800,65.6%
same,cleaved PARP positive nuclei fraction,COLO829,79.4%
same,cleaved PARP positive nuclei fraction,G361,67.4%
same,cleaved PARP positive nuclei fraction,IPC-298,94.6%
same,cleaved PARP positive nuclei fraction,IST-MEL1,189%
same,cleaved PARP positive nuclei fraction,LB2518-MEL,77.1%
same,cleaved PARP positive nuclei fraction,LOXIMVI,63.3%
"O=C(O)c1ccc2c(c1)nc(Nc1cccc(Cl)c1)c1ccncc12 + Cc1cc(SCc2sc(-c3ccc(C(F)(F)F)c(F)c3)nc2C)ccc1OCC(=O)O [GW0742] (first compound 0.4 µM, partner dose 2 µM)",cleaved PARP positive nuclei fraction,COLO792,74.6%
same,cleaved PARP positive nuclei fraction,COLO800,48.2%
same,cleaved PARP positive nuclei fraction,COLO829,103%
same,cleaved PARP positive nuclei fraction,G361,59.5%
same,cleaved PARP positive nuclei fraction,IPC-298,93.7%
same,cleaved PARP positive nuclei fraction,IST-MEL1,96.7%
same,cleaved PARP positive nuclei fraction,LB2518-MEL,64.7%
same,cleaved PARP positive nuclei fraction,LOXIMVI,81.5%

# A second format for part of the listing above:
smiles | measurement | setting | value
Cn1cc(C2=C(c3cn(C4CCN(Cc5ccccn5)CC4)c4ccccc34)C(=O)NC2=O)c2ccccc21 [Enzastaurin] + COc1ccc(COc2ccc(Cc3cnc(N)nc3N)cc2OC)cc1 [GW2580] (first compound 0.8 µM, partner dose 1 µM) | cleaved PARP positive nuclei fraction | LB2518-MEL | 140%
same | cleaved PARP positive nuclei fraction | LOXIMVI | 105%
Cn1c(=O)n(-c2ccc(C(C)(C)C#N)cc2)c2c3cc(-c4cnc5ccccc5c4)ccc3ncc21 + C/C(O)=C(\C#N)C(=O)Nc1cc(Br)ccc1Br [LFM-A13] (first compound 0.004 µM, partner dose 2 µM) | cleaved PARP positive nuclei fraction | COLO792 | 80.6%
same | cleaved PARP positive nuclei fraction | COLO800 | 92.3%
